Values of other authors in publication PMC4713029 (Nuclear medicine and biology, 2011).

Conditions: in circulation/plasma; cited from earlier work

N[C@@H](Cc1ccc(O)c(O)c1)C(=O)O [L-DOPA]
half-life: 40 to 60 min
